From patent US20150197562A1 (FRAUNHOFER GESELLSCHAFT ZUR FOERDERUNG DER ANGEWANDTEN …, published 2015)
These are yes or no findings as the source states them, for the method shown.

What was measured:
MSP4 (EGF domain) [1] = experiment: dot blot
MSP4 (EGF domain) [2] = experiment: dot blot on nitrocellulose, goat anti-human AP, NBT/BCIP

Binder | binding (MSP4 (EGF domain) [1]) | binding (MSP4 (EGF domain) [2])
recombinant huMAb-anti-MSP10.1 (antibody, V domains shown, also called recombinant human anti MSP-10 antibody huMAb-anti-MSP10.1) VH: EVQLVESGGDLVKPGGSLRLSCVVSGFRISTSAMSWVRQVPGKGLEWVSDISESGGSKDYADSVRGRFTISRDTSKNTLYLQMNSLGADDTALYYCAKSVGYFDTSGYYRWDYFDSWGQGTLVTVSS VL: EIVLTQSPDILSLSPGERATLSCRASQALTAKYLAWYQQKPGQVPRLLIYGSSTRATGIPDRFRGSGSGTDFTLTISRLEPADSAVYYCQQYEDSPWTFGQGTKLEIK | no binding | no binding (tested: 100 ng antigen per dot)
recombinant huMAb-anti-MSP10.2 (antibody, V domains shown, Same heavy chain as huMAb-anti-MSP10.1 with a different kappa light chain; Cloned and expressed like huMAb-anti-MSP10.1 (IgG1m17,1, kappa; N. benthamiana)) VH: EVQLVESGGDLVKPGGSLRLSCVVSGFRISTSAMSWVRQVPGKGLEWVSDISESGGSKDYADSVRGRFTISRDTSKNTLYLQMNSLGADDTALYYCAKSVGYFDTSGYYRWDYFDSWGQGTLVTVSS VL: EIVLTQSPDTLSLSPGETATLSCRASQTVRRNSLAWYQQKPGQAPRLLIYGASDRATGIPDRFSGSGFGTDFTLTVSGLEPEDFAVYYCQQYGTSPRTFGQGTKLEIK | no binding | no binding (tested: 100 ng antigen per dot)
